# Screen size: about 340,000 compounds; about 1,000 (0.29%) were called active. Rule as the data show it: inconclusive = inhibition above about 29% without an active follow-up result; inactive = below that. Some of the results follow. Potency and affinity values are given separately.
# Target: T1, Genome polyprotein, Dengue virus type 2 (strain Thailand/16681/1984) (UniProt P29990)
# T1 sequence (whole entry): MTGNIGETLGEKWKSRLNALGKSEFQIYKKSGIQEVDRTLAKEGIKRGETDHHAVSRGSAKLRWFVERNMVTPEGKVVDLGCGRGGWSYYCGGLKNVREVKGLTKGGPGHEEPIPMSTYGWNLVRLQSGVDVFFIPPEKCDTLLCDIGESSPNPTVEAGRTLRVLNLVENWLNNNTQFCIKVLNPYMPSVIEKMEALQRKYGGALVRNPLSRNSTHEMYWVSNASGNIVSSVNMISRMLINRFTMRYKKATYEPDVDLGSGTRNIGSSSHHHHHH
# Experiment: Primary and Confirmatory Screening for Flavivirus Genomic Capping Enzyme Inhibition
row,Compound,outcome
1,N#C/C(=C\c1ccc(OC(=O)c2ccc(Br)s2)cc1)c1nc2ccccc2[nH]1,inactive

# Reference: the GenesisPotency data set
